Results are given in words; binding and its absence hold for the method and conditions named. Some binding calls cover weakened binding; strength is not graded here.
Target: T1, wild-type human Claudin 5 protein (human, UniProt O00501 1-218)
T1 construct: also called hCLDN5; CLDN 5
T1 sequence: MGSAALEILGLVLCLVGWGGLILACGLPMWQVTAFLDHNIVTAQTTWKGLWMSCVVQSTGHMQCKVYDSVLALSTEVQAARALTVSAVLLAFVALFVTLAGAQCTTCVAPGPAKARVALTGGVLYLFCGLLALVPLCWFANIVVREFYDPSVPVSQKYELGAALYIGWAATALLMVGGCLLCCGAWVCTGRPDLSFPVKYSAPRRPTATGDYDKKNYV
Test: FACS screening of hybridoma supernatants on human Claudin 5-expressing HT-1080 cells against mock cells; positive clones

- binding: binds
B1: antibody 4A1 (antibody, IgG2b, V domains shown)
VH: QVQLQQSGAELARPGASVKLSCKASGYTFTSYGISWVNQRTGQGLEWIGEIYPRSGNTYFNEKFQGKATLTADKSSSTAYMELRSLTSEDSAVFFCARPYEGYFDYWGQGTTLTVSS
VL: DIVLTQSPASLAVSLGQRATISCRASKSVSTSGYSYMHWYQQKPGQPPKLLIYLASNLESGVPARFSGSGSGTDFTLNIHPVEEEDAATYYCQHSRELPFTFGSGTKLEIKR

From patent publication US20200223915A1 (OSAKA UNIVERSITY, published 2020)
